Assay [1] concerns the target fKS (Pks13 fragment, residues 119-575) (Mycobacterium tuberculosis H37Rv) (UniProt I6X8D2). Description: SEC + other: SAXS; […], pH 8.0, 50 mM NaCl, 12-15 °C; both purified.
Assay [2] addresses fACP1-KS-AT (Pks13 fragment, residues 1-1063) (Mycobacterium tuberculosis H37Rv) (UniProt I6X8D2). Description: SAXS; […] (direct) […], Tris-HCl pH 7.5-8.5 ([…]; both purified.

Protein sequences, listed by entry. Tags and fused reporters are not part of them. Residues count along the entry.
fACP1-KS-AT (Pks13 fragment, residues 1-1063) (I6X8D2, residues 1-1063): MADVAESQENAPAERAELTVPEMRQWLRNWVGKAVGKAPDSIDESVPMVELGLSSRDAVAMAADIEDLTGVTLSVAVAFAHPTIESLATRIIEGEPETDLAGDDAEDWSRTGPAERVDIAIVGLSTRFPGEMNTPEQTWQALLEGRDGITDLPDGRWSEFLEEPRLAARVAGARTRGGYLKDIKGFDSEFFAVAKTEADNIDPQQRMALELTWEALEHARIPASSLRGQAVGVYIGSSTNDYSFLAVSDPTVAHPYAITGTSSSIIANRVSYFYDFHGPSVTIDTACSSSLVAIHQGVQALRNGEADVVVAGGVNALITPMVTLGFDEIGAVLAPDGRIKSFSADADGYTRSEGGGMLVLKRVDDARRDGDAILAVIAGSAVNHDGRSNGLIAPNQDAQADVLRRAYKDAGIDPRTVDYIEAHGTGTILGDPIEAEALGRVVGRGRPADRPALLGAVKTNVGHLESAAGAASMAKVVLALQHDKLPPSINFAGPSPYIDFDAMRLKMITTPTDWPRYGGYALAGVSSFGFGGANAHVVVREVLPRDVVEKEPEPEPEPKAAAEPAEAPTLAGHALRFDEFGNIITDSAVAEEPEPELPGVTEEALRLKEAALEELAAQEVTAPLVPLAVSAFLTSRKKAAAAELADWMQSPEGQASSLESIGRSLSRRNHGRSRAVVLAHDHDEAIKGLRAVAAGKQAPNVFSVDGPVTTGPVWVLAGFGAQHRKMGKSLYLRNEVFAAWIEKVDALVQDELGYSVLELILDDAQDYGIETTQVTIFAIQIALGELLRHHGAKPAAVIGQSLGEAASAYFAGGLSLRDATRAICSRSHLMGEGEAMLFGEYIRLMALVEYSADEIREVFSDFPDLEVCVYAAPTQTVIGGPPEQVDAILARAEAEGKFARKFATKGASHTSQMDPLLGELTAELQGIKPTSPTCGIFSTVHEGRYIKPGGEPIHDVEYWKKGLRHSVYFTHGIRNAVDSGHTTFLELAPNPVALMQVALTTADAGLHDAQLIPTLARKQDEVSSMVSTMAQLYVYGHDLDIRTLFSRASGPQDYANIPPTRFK
fKS (Pks13 fragment, residues 119-575) (I6X8D2, residues 119-575): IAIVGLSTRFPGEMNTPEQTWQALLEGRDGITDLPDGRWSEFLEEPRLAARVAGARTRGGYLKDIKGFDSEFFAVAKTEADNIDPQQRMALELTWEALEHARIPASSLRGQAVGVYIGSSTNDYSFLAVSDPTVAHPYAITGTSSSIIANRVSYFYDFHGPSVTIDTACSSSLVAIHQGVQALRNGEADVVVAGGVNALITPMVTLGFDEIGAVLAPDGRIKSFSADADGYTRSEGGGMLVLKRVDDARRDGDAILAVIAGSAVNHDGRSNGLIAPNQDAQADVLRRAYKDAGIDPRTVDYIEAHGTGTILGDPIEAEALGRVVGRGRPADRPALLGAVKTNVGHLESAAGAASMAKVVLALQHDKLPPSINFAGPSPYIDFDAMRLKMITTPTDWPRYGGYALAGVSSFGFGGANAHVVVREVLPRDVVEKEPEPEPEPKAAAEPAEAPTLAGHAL

These are yes or no findings as the source states them, for the method shown.

In the case of “fKS (Pks13 fragment, residues 119-575) (from UniProt I6X8D2 119-575) (domain or fragment)”, in assay [1], the binding result is listed as “no binding”.

Take “fACP1-KS-AT (Pks13 fragment, residues 1-1063) (from UniProt I6X8D2 1-1063) (domain or fragment)”: the binding result in assay [2] is given as “no binding (tested: about 1 to 18 mg/ml)”.

The values above are taken from publication PMC9210659.
